Experimental data: PubChem BioAssay AID1259254 (NCATS, 2017)
The deposit covers about 59,000 reagents; shown is an unselected part. About 1,550 of all reagents (2.6%) were called active. 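G2 share is only a proxy for re-replication; each gene was hit by three separate siRNAs, and active genes were retested.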 Reagents against one gene are numbered here. Not all columns of the deposit are shown. Not stated in the record: the amount of reagent.

- Test: 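Genome-wide screen for genes that prevent DNA re-replication in cancer cells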 (primary screen)
- Cell system: human HCT116 colorectal cancer cells
- Knock-down reagent: single siRNA against human genes
- Duration: 3 days
- Measurement: 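Imaged Hoechst DNA stain sorts each cell into a cycle phase by DNA amount; per plate, G2 fraction set to 0% for non-targeting and 100% for GMNN siRNA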
- Scale: G2 robust z-score: higher = more G2 cells, more excess DNA replication
- Active means: 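Active siRNAs have a G2 robust z of 5 or more median absolute deviations over the median, which in these data means about 38% or higher of GMNN control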

What did the screen give for FGF7P6 (GeneID 387628) #1?
G2 robust z-score: 0.281; Outcome: inactive

What is on record for FGF7P6 (GeneID 387628) #2?
G2 robust z-score: 0.0919; Outcome: inactive

Which result is listed for FGF7P6 (GeneID 387628) #3?
G2 robust z-score: 0.641; Outcome: inactive

With UNC45A (GeneID 55898) #1, how do the results read?
G2 robust z-score: -0.667; Outcome: inactive

For UNC45A (GeneID 55898) #2, how do the results read?
G2 robust z-score: 0.164; Outcome: inactive

What is on record for UNC45A (GeneID 55898) #3?
G2 robust z-score: 0.104; Outcome: inactive

Which result is listed for FAM220BP (GeneID 647044) #1?
G2 robust z-score: -0.294; Outcome: inactive

What is on record for FAM220BP (GeneID 647044) #2?
G2 robust z-score: -0.729; Outcome: inactive

What did the screen give for FAM220BP (GeneID 647044) #3?
G2 robust z-score: -0.51; Outcome: inactive

Which result is listed for RASSF2 (GeneID 9770) #1?
G2 robust z-score: -1.03; Outcome: inactive

With RASSF2 (GeneID 9770) #2, what does the deposit list?
G2 robust z-score: 0.354; Outcome: inactive

With RASSF2 (GeneID 9770) #3, what does the deposit list?
G2 robust z-score: -0.137; Outcome: inactive
